# System: adults with histocytologically proven malignant pleural effusion
# Test: Phase I/IIa trial of intrapleural LTA-T: dose escalation and toxicity
# Format: in vivo, human
# From the text: The study was a phase I/IIa toxicity/non-randomised “proof of concept” efficacy trial. The protocol included administration of an intrapleural saline control followed by seven days pleural fluid production measurement prior to the administration of LTA-T to allow the assessment of any side-effects from LTA-T administration, and both acute pleural fluid production changes and the frequency of long-term pleurodesis efficacy after intrapleural LTA-T (see FIG. 1).
# The subjects were adults (aged≧18) with histocytologically proven malignant pleural effusion requiring symptomatic treatment.
# After informed consent, an indwelling pleural catheter (PleurX, Denver, Colo.) was placed in the pleural effusion and the pleural space fully drained. Markers of toxicity (clinical symptoms, blood parameters, performance status) were recorded daily on the first 14 days of the study and at intervals thereafter (FIG. 1).
# After initial complete fluid drainage, 30 mls intra-pleural saline (saline control) was administered (day 1). The daily pleural fluid drainage was then recorded for seven days to quantify the rate of production of pleural fluid. […]
# Patient symptoms, performance status, radiographic pleural fluid recurrence (chest radiograph), adverse events and the clinical need for further pleural fluid drainage was assessed on days 22, 43, 64, 85. […]
substance,measurement,setting,value
lipoteichoic acid T [LTA-T],Therapeutic dose per kg,equating to 750-1500 mcg,0.01 to 0.02 mg/kg
same,Therapeutic dose,"intrapleural, based on detectable systemic inflammation (white cell count rise)",750 to 1500 µg
